Reference: PubChem BioAssay AID1671190 (National Center for Advancing Translational Sciences (NCATS), 2021)
“And” between values parts separate entries of the source, which are not always exact repeats. Equal entries are not always repeated. Among all 580,000 compounds or so, about 6,100 (1.1%) were called active. This list was built around the results that the source calls inconclusive (neither active nor inactive); the mix of calls is not that of the screen. The call rests on the fitted dose curve; in most records, active means well fitted inhibition curve with a large enough effect; inconclusive means small, poorly fitted or top-dose-only effect, or another doubt; inactive means no such curve, though single readings can be large or run the other way. A potency beside an inconclusive call is a rough fit, not a confirmed value.
On the % scale 0 is the no-effect control and ±100 the full control effect; potency means the concentration at half of the fitted maximal effect.

Sequences of proteins named here, by UniProt entry; tags and fusion partners are left off. A change or cut given only in a name is not applied to a line headed by its entry.
UniProt P18054: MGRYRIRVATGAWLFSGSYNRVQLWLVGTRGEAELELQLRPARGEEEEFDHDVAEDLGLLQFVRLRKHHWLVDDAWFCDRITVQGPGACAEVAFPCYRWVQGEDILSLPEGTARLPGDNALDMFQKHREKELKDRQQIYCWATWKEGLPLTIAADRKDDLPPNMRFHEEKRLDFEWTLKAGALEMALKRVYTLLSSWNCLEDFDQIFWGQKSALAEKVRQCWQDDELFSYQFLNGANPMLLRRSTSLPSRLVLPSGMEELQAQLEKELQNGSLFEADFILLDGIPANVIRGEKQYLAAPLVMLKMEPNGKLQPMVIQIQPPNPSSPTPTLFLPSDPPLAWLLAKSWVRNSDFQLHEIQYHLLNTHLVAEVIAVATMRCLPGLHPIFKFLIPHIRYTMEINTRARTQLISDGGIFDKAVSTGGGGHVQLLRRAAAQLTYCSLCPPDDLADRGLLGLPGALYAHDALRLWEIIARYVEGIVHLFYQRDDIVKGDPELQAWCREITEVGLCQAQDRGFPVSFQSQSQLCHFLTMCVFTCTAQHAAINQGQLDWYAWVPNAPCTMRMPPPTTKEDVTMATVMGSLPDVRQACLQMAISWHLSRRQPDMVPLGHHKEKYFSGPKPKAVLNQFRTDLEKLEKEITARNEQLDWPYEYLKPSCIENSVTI

Each molecule was assayed against Polyunsaturated fatty acid lipoxygenase ALOX12 (Homo sapiens) (UniProt P18054) (assay: Primary qHTS assay for inhibitors of human arachidonate 12S-lipoxygenase (ALOX12): Round 2). Details: purified 12hLO, xylenol orange hydroperoxide absorbance; activity change, negative = inhibition: at 108 µM (top of the series) unless noted.
Summary of the method: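 Purified human 12hLO (150 nM final) in 25 mM Hepes, 0.01% Triton X-100, pH 7.0 was preincubated 15 min at room temperature with compound. Then 40 uM arachidonic acid was added, 30 min. Hydroperoxide was read by Fe-XO absorbance ratio 573/405 nm.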
In the case of `CCOC(=O)c1cc(C#N)c(SCC(=O)c2cc(C#N)c(SC)nc2C)[nH]c1=O`, the Potency is reported as inconclusive: 6.31 µM [inhibitor, full curve].
In the case of `CCN(CC)C(=O)c1csc(Nc2cccc3ccccc23)n1`, the Potency is reported as inconclusive: 25.1 µM [inhibitor, partial curve, poor fit].
With `CCNC(=O)c1ccc(CNC(=O)OC(C)(C)C)cc1` the “activity change, negative = inhibition” value was inactive: -38.9%.
With `O=C1c2c(nc(COc3ccc4c(c3)OCO4)n2Cc2ccccc2)NCCN1Cc1cccc(Cl)c1` the Potency was inconclusive: 25.1 µM [inhibitor, full curve, poor fit].
With `C/C(=N/Nc1ccc(S(N)(=O)=O)cc1[N+](=O)[O-])c1ccccc1Cl` the Potency was inconclusive: 6.31 µM [inhibitor, full curve, poor fit].
In the case of `Cc1sc(NC(=O)CS(=O)(=O)c2ccccc2)c(C#N)c1C`, the “activity change, negative = inhibition” value is reported as inactive: -19.3%.
`O=C(O)C1Nc2c(Cl)cc(Cl)c(Cl)c2C2C=CCC12` (centres undefined) was tested, and the Potency was active: 3.16 µM.
With `O=C(c1ccncn1)N1C[C@@H](COCC2CC2)[C@H](c2ccncc2)C1` the “activity change, negative = inhibition” value was inactive: 3.11%.
`O=C(OCc1ccc(Br)cc1)c1cnc(Cl)c(Cl)c1` was tested, and the “activity change, negative = inhibition” value was inactive: -18.9%.
In the case of `COc1ccc2cc3[n+](cc2c1O)CCc1cc2c(cc1-3)OCO2`, the Potency is reported as inconclusive: 25.1 µM [inhibitor, partial curve, poor fit].
`O=c1[nH]c(C2CCCN(Cc3ccc(-c4cc(F)cc(F)c4)cc3)C2)nc2ccc(F)cc12` (centres undefined) was tested, and the Potency was inconclusive: 56.2 µM [inhibitor, partial curve, poor fit] and inconclusive: 25.1 µM [inhibitor, full curve].
For `C=CCn1c(=N)n(CC(=O)c2ccccc2)c2ccccc21`, the “activity change, negative = inhibition” value was inactive: 9.02%.
`COc1cc(/C=C2\NC(=O)NC2=O)c(Br)cc1OCC(=O)O` was tested, and the Potency was inconclusive: 50.1 µM [inhibitor, partial curve, poor fit].
In the case of `Cc1c(C(=O)CN2CCCC(C)(C)C2)c2ccccc2n1C`, the Potency is reported as inconclusive: 28.2 µM [inhibitor, single point].
`CCC(=O)N1N=C(c2cccc(NS(C)(=O)=O)c2)CC1c1cccs1` (centres undefined) was tested, and the Potency was inconclusive: 100 µM [inhibitor, partial curve, poor fit].
`Cc1ccc(NC(=O)c2ccccc2NS(=O)(=O)c2ccc(Cl)s2)cc1` was tested, and the Potency was inconclusive: 39.8 µM [inhibitor, partial curve].
For `COc1ccc(C2CC(=O)C(CS(=O)(=O)c3ccccc3)C(=O)C2)cc1` (centres undefined), the “activity change, negative = inhibition” value was inactive: -20.4%.
In the case of `COc1cccc(C2C3=C(CCCC3=O)Nc3c(C#N)cnn32)c1OC` (centres undefined), the “activity change, negative = inhibition” value is reported as inactive: 50.1%.
With `Cc1ccc(Sc2ccc(S(=O)(=O)Nc3ccc(CC(=O)O)cc3)cc2)cc1C` the Potency was inconclusive: 31.6 µM [inhibitor, partial curve, poor fit].
In the case of `O=C(Nc1ccccc1C(=O)N1CCOCC1)c1ccco1`, the Potency is reported as inconclusive: 63.1 µM [inhibitor, partial curve, poor fit].
In the case of `CC(C)(C)C(=O)Nc1cc(C(F)(F)F)ccc1N1CCOCC1`, the “activity change, negative = inhibition” value is reported as inactive: -5.41%.
In the case of `Cc1cc(SCC(=O)c2ccc(Cl)cc2)nc(=O)[nH]1`, the Potency is reported as active: 20 µM.
For `CCOc1ccc(-c2cc(NC(=O)c3c(F)cccc3F)c(C(=O)O)s2)cc1`, the Potency was inconclusive: 100 µM [inhibitor, single point].
With `COc1ccc(OC)c(CCNC(=O)c2c3c(nc4ccccc24)C(=O)N(C2CCCCC2)C3)c1` the Potency was inconclusive: 141 µM [inhibitor, partial curve, poor fit].
In the case of `Cc1noc(C)c1CSCC(=O)Nc1nc(-c2ccc(F)c(F)c2)cs1`, the Potency is reported as inconclusive: 7.08 µM [inhibitor, full curve].
With `CC(=O)c1cnc(N(C)C)s1` the “activity change, negative = inhibition” value was inactive: -0.585%.
In the case of `CCC(CC)C(=O)N1CC[C@@H](CC(=O)O)[C@@H](CC2=NCCc3ccc(C)cc32)C1`, the Potency is reported as inconclusive: 44.7 µM [inhibitor, partial curve].
With `O=C(CSc1nc2c([nH]c3ccccc32)c(=O)n1-c1ccc(Cl)cc1)N1CCCC1` the “activity change, negative = inhibition” value was inactive: 0%.
`Cc1cc(C)c(NC(=O)COc2ccc3c(C)cc(=O)oc3c2)c(C)c1` was tested, and the Potency was inconclusive: 7.08 µM [inhibitor, full curve, poor fit].
For `CC(C)OC(=O)CN1C(=O)C(C)(C)Oc2ccc(C(=O)NC(C)(C)C)cc21`, the “activity change, negative = inhibition” value was inactive: -3.62%.
With `CCOC(=O)c1sc(N2N=C(C)C(N=Nc3cccc(C)c3)C2=O)nc1C` (centres undefined) the “activity change, negative = inhibition” value was inactive: 2.35%.
With `CC(C)CCNC(=O)C12CC3CC(CC(O)(C3)C1)C2` the Potency was inconclusive: 56.2 µM [inhibitor, partial curve, poor fit].
`CC1(C(=O)NS(=O)(=O)c2cccs2)CCN1C(=O)CCc1ccc(Cl)cc1Cl` (centres undefined) was tested, and the Potency was inconclusive: 56.2 µM [inhibitor, partial curve, poor fit].
With `CCN1CCCC1CNC(=O)C1CCCC1` (centres undefined) the Potency was inconclusive: 100 µM [inhibitor, single point].
In the case of `COC(=O)c1c(-c2ccccc2)csc1NC(=O)CSc1ncnc2sc(C)c(C)c12`, the “activity change, negative = inhibition” value is reported as inactive: 0%.
In the case of `C/C(=C\c1cc2ccccc2o1)C1Nc2cccc3cccc(c23)N1`, the Potency is reported as inconclusive: 44.7 µM [inhibitor, partial curve, poor fit].
`O=S(=O)(NCC(Nc1ccc(Cl)cc1)c1ccccc1)c1ccccc1` (centres undefined) was tested, and the Potency was inconclusive: 112 µM [inhibitor, partial curve, poor fit].
With `O=C(NCc1csc(-c2cccs2)n1)c1ccsc1` the Potency was inconclusive: 112 µM [inhibitor, single point].
In the case of `CCCCC(NC(=O)Cc1c(C)c2cc3c4c(oc3c(C)c2oc1=O)CCCC4)C(=O)O` (centres undefined), the Potency is reported as inconclusive: 14.1 µM [inhibitor, partial curve, poor fit].
`CN(C)c1ncnc2c1NC1=C(S2)C(=NCCCC(=O)O)CC(C)(C)C1` was tested, and the “activity change, negative = inhibition” value was inactive: 161%.
`Cc1cc(C)cc(NC(=O)CSc2nnc(-c3cc4occc4n3C)n2-c2ccccc2C)c1` was tested, and the Potency was inconclusive: 70.8 µM [inhibitor, partial curve, poor fit].
In the case of `CC(=O)Nc1ccc(SCC(=O)c2ccc(Br)s2)cc1`, the Potency is reported as inconclusive: 39.8 µM [inhibitor, partial curve, poor fit].
`CC(C)(C)c1ccc(CNCCC(=O)O)cc1` was tested, and the Potency was inconclusive: 39.8 µM [inhibitor, partial curve, poor fit].
In the case of `O=C(OCC(=O)N1CCCC1)c1ccc(S(=O)(=O)Nc2ccccc2)cc1`, the “activity change, negative = inhibition” value is reported as inactive: -6.07%.
With `CCCCn1c(N)c(C(=S)NC(=O)CC(C)(C)C)c(=O)n(C)c1=O` the Potency was inconclusive: 44.7 µM [inhibitor, partial curve, poor fit].
`CC(=O)Nc1ccc(OCc2cccc3ccccc23)cc1` was tested, and the Potency was inconclusive: 141 µM [inhibitor, single point].
`COc1ccc(NC(=O)c2ccc3c(c2)NC(C)(CNc2ccccc2)CO3)cc1OC` (centres undefined) was tested, and the “activity change, negative = inhibition” value was inactive: -4.82% [at 176 µM].
`CN(CC(=O)Nc1ccccc1Cl)C(=O)COC(=O)/C=C/c1cccc(C(F)(F)F)c1` was tested, and the Potency was inconclusive: 112 µM [inhibitor, single point].
For `CN(CC(=O)Nc1ccccc1Cl)C(=O)c1nn(-c2ccccc2)c2c1CCC2`, the “activity change, negative = inhibition” value was inactive: 7.94%.
With `N#CC1=C(N)Oc2n[nH]c(-c3ccccc3)c2C12C(=O)N(Cc1ccc(Cl)cc1)c1ccccc12` (centres undefined) the Potency was inconclusive: 44.7 µM [inhibitor, single point].
`CS(=O)(=O)NC[C@H]1O[C@@H](CO)[C@@H](O)[C@H]1N1CCc2ccccc2C1` was tested, and the Potency was inconclusive: 25.1 µM [inhibitor, partial curve].
`Cc1ccc(S(=O)(=O)N(C)C)cc1NC(=S)NC(C)CCCC(C)C` (centres undefined) was tested, and the Potency was inconclusive: 44.7 µM [inhibitor, partial curve, poor fit].
With `CSc1ccccc1C(=O)Nc1ccc(F)cc1` the “activity change, negative = inhibition” value was inactive: -6.77%.
In the case of `CCOC(=O)C1(c2ccccc2)SC(C(=O)OCC)(c2ccccc2)S1` (centres undefined), the Potency is reported as inconclusive: 28.2 µM [inhibitor, partial curve, poor fit].
With `Cc1nc(SCC(=O)N2CCNC2=O)c(C#N)c(C)c1C` the “activity change, negative = inhibition” value was inactive: 7.86%.
For `Cn1nccc1C(=O)N1CCC(F)(c2nc(-c3ccccc3)no2)CC1`, the “activity change, negative = inhibition” value was inactive: 22.3%.
With `CCOc1ccc(-n2c(-c3ccccc3)c[nH]c2=S)cc1` the Potency was inconclusive: 39.8 µM [inhibitor, partial curve].
`COCCn1c(-c2ccc(F)cc2)nc2oc3cc(OC)ccc3c(=O)c2c1=O` was tested, and the Potency was inconclusive: 112 µM [inhibitor, single point].
In the case of `Cc1ccc(-c2nc3cccnc3o2)cc1NC(=O)COc1ccc(C(C)(C)C)cc1`, the “activity change, negative = inhibition” value is reported as inactive: 1.78%.
With `Cc1ccc(CNCc2c(C(=O)O)n(Cc3ccc(C)cc3)c3cc(C)ccc23)cc1` the Potency was inconclusive: 50.1 µM [inhibitor, partial curve].
In the case of `COc1ccc(NC(=O)/C=C/c2ccccc2)cn1`, the Potency is reported as inconclusive: 0.199 µM [inhibitor, full curve, poor fit].
In the case of `N#Cc1cc(NCC2CCCO2)c([N+](=O)[O-])cc1C#N` (centres undefined), the “activity change, negative = inhibition” value is reported as inactive: -15.6%.
In the case of `C=CCOc1cccc(C2/C(=C(\O)c3ccc4c(c3)OCCO4)C(=O)C(=O)N2Cc2cccnc2)c1` (centres undefined), the “activity change, negative = inhibition” value is reported as inactive: -1.84%.
`CCN(CC(=O)Nc1ccc2c(c1)OCCO2)CC(=O)Nc1ccccc1C(F)(F)F` was tested, and the “activity change, negative = inhibition” value was inactive: 293%.
With `Cc1ccc(CNC2CC3CCC2(C)C3(C)C)s1` (centres undefined) the “activity change, negative = inhibition” value was inactive: 26.7%.
`CC(=O)C[C@](N)(c1ccccc1)C(F)(F)F` was tested, and the “activity change, negative = inhibition” value was inactive: 9.8%.
`CC(C)=CCn1c(-c2ccccc2Cl)cn2cc(C(=O)NCCCO)nc2c1=O` was tested, and the “activity change, negative = inhibition” value was inactive: 56.4%.
For `CCCCNC(=O)CN1CCN(Cc2ccc3cc(OC)ccc3c2)CC1`, the Potency was inconclusive: 0.0891 µM [inhibitor, full curve, poor fit].
